This is an account of results in article PMC3783399.

Sequences of proteins named here, by UniProt entry; tags and fusion partners are left off.
UniProt Q92993: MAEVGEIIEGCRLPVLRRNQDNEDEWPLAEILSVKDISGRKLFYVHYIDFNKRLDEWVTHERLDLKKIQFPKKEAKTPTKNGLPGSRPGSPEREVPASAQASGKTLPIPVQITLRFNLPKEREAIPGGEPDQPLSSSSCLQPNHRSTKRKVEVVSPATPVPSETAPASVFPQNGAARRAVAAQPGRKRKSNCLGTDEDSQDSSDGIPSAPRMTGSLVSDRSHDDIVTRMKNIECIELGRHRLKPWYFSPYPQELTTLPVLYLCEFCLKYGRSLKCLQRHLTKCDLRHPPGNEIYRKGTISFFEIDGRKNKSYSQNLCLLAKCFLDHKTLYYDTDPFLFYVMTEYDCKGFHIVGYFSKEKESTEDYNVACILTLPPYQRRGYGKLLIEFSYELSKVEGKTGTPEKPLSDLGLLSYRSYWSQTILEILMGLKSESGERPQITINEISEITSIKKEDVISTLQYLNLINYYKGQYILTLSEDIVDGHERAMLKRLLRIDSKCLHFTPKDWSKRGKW

Results are given in words; binding and its absence hold for the method and conditions named. Binding seen in cells or lysates may run through a third protein. Some binding calls cover weakened binding; strength is not graded here. Sequences can lack the tags named with a protein.

This assay concerns the target myc-Tip60-YN155 (Tip60 with the YN155 BiFC fragment at its C-terminus) (UniProt Q92993). As to the kind of experiment: split reporter; BiFC read by confocal microscopy in HEK293 cells cotransfected with the YC and YN fusion constructs (HA-Fe65 cotransfected for APP-YC with Tip60-YN); fluorescence maturation 10 hours at 30°C.

B1: HA-Fe65 (protein, UniProt O00213 1-710)
chain: MSVPSSLSQSAINANSHGGPALSLPLPLHAAHNQLLNAKLQATAVGPKDLRSAMGEGGGPEPGPANAKWLKEGQNQLRRAATAHRDQNRNVTLTLAEEASQEPEMAPLGPKGLIHLYSELELSAHNAANRGLRGPGLIISTQEQGPDEGEEKAAGEAEEEEEDDDDEEEEEDLSSPPGLPEPLESVEAPPRPQALTDGPREHSKSASLLFGMRNSAASDEDSSWATLSQGSPSYGSPEDTDSFWNPNAFETDSDLPAGWMRVQDTSGTYYWHIPTGTTQWEPPGRASPSQGSSPQEESQLTWTGFAHGEGFEDGEFWKDEPSDEAPMELGLKEPEEGTLTFPAQSLSPEPLPQEEEKLPPRNTNPGIKCFAVRSLGWVEMTEEELAPGRSSVAVNNCIRQLSYHKNNLHDPMSGGWGEGKDLLLQLEDETLKLVEPQSQALLHAQPIISIRVWGVGRDSGRERDFAYVARDKLTQMLKCHVFRCEAPAKNIATSLHEICSKIMAERRNARCLVNGLSLDHSKLVDVPFQVEFPAPKNELVQKFQVYYLGNVPVAKPVGVDVINGALESVLSSSSREQWTPSHVSVAPATLTILHQQTEAVLGECRVRFLSFLAVGRDVHTFAFIMAAGPASFCCHMFWCEPNAASLSEAVQAACMLRYQKCLDARSQASTSCLPAPPAESVARRVGWTVRRGVQSLWGSLKPKRLGAHTP
Take B1: the binding entry is reported as “binds”.
